# Out of some 330,000 compounds screened, about 7,700 (2.3%) were called active. This list was built around the results that the source calls inconclusive (neither active nor inactive); the mix of calls is not that of the screen. Calls follow the shape of the dose curve; as a rule, active = well fitted inhibition curve with a large enough effect; inconclusive = small, poorly fitted or top-dose-only effect, or effect the other way; inactive = flat fitted curve, though single readings scatter. A potency beside an inconclusive call is a rough fit, not a confirmed value.
# Test: qHTS screen for small molecules that inhibit ELG1-dependent DNA repair in human embryonic kidney (HEK293T) cells expressing luciferase-tagged ELG1; also: nearly all actives have a fitted effect of over 55% in size
# Conditions: HEK293T ELG1-luciferase reporter, luminescence, 16 h, DNA damage induced by 5-fluorouridine; series mostly up to 46.1 µM
# Method in brief: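 Reporter activity after DNA damage by 5-fluorouridine is monitored. Compound-treated cells incubate 16 hr at 37 °C, then ONE-Glo is added for 30 min before luminescence reading.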
# Potency is read from the fitted curve at half-maximal effect.
row,Structure (SMILES),Potency
1,Cc1ccc(NC(=O)/C=C/c2cccc([N+](=O)[O-])c2)nc1,"inconclusive: 9.2 µM [activator, partial curve, poor fit]"
2,CCOC(=O)C1=C(c2ccccc2)OC(N)=C(C#N)C1C1CCCCC1 (centres undefined),inactive
3,Cc1ccc(NC(=O)NC(=O)CN2CCN(c3ccc(O)cc3)CC2)c(C)c1,"inconclusive: 14.6 µM [inhibitor, partial curve, poor fit]"
4,Cc1nc2ncnn2c(N2CCN(S(=O)(=O)c3ccc(Br)cc3)CC2)c1C,inactive
5,COc1ccc(/C=N\NC(=O)c2cccc([N+](=O)[O-])c2)cc1Cn1cc([N+](=O)[O-])cn1,active: 14.6 µM
6,CCc1nc(C)cn1S(=O)(=O)c1ccc(Br)cc1,inactive
7,CCN1CCCC1CNC(=O)c1ccc(N2CCOCC2)c(NS(=O)(=O)c2ccc(OC)cc2)c1 (centres undefined),"inconclusive: 25.9 µM [activator, single point]"
8,CC(=O)Nc1ccc(N2C(C(C)=O)=NN(c3ccc(Cl)cc3)C2c2sccc2C)cc1 (centres undefined),inactive
9,Cc1cc(C)nc(S/C=C/C(=O)c2ccccc2F)n1,"inconclusive: 20.6 µM [activator, single point]"
10,CC(C)Oc1cccc(C(=O)NC(=S)N2CCN(c3ccc(C(F)(F)F)cc3[N+](=O)[O-])CC2)c1,"inconclusive: 25.9 µM [inhibitor, single point]"
11,CCOc1ccc(C(=O)NC(=S)Nc2cccc(NC(=O)c3ccco3)c2)cc1[N+](=O)[O-],active: 23.1 µM
12,O=C1C2C3C=CC(CC3)C2C(=O)N1c1ccc(F)cc1 (centres undefined),"inconclusive: 0.562 µM [activator, single point]"
13,Cc1[nH]c2ccccc2c1/C=N/NC(=O)c1cc(-c2ccncc2)nc2ccccc12,"inconclusive: 29.1 µM [inhibitor, single point]"
14,Cc1ccc(C)c(NC(=O)COC(=O)c2ccc(S(=O)(=O)N3CCCCC3)cc2)c1,inactive
15,O=C(CCCc1nc(-c2ccc(Cl)cc2)no1)N1CCOCC1,inactive
16,COc1ccccc1N(CC(=O)Nc1ccc(S(=O)(=O)N2CCCCC2)cc1)S(C)(=O)=O,"inconclusive: 3.26 µM [inhibitor, partial curve, poor fit]"
17,O=C(Nc1ccccc1O)c1cc2cc(Br)ccc2oc1=O,"inconclusive: 3.26 µM [activator, full curve]"
18,CCN(C(=O)c1c(N)cnn1C)c1ccccc1,inactive
19,N#CC(C#N)=Cc1ccc(OC(=O)c2ccccn2)cc1,inactive
20,O=C(NCc1ccc2c(c1)OCO2)Nc1cccc(Cl)c1,"inconclusive: 5.8 µM [activator, full curve]"
21,O=C(c1cccc(S(=O)(=O)NCCOc2ccccc2)c1)N1CCN(c2ncccn2)CC1,active: 23.1 µM
22,N#Cc1ccccc1NC(=O)CSc1ccc([N+](=O)[O-])cn1,inactive
23,COc1ccccc1C(=O)NC(=O)COC(=O)Cn1[nH]c(=O)c2ccccc2c1=O,inactive

row,Structure (SMILES),Potency
1,N#CC1=C(N)SC(N)=C(C#N)C1c1cccc(O)c1,inactive
2,COc1ccc(CCN2CC(C(=O)NCc3cc(C)on3)CCC2=O)cc1 (centres undefined),"inconclusive: 25.9 µM [activator, single point]"
3,CC(C)OC(=O)c1ccc(OC(=O)c2cccnc2)cc1,"inconclusive: 18.4 µM [activator, partial curve, poor fit]"
4,O=C1CCC(=O)N1OCCCOc1ccc(Br)cc1Cl,"inconclusive: 20.6 µM [activator, partial curve, poor fit]"
5,COc1ccc(NC(=O)Cn2nnc(C(=O)NCc3ccc4c(c3)OCO4)c2N)cc1,"inconclusive: 29.1 µM [activator, single point]"
6,CCCCNc1ccc2oc(-c3ccc(OC)cc3)c(-c3ccc(OC)c(F)c3)c2c1,"inconclusive: 8.2 µM [activator, partial curve, poor fit]"
7,Cn1c(C(=O)N2CCN(Cc3ccc4c(c3)OCO4)CC2)cc2sccc21,"inconclusive: 20.6 µM [inhibitor, single point]"
8,COc1ccc(CN2CC(=O)N(c3ccccc3C)C2=S)cc1OC,"inconclusive: 25.9 µM [inhibitor, single point]"
9,O=C(Nc1ccon1)Nc1ccc(Cl)cc1Cl,"inconclusive: 16.4 µM [activator, partial curve, poor fit]"
10,CCCCn1c(N)c(N(C)C(=O)c2ccc(Br)o2)c(=O)[nH]c1=O,inactive
11,COc1cc(NC(=S)Nc2ccc(OC(F)F)cc2)cc(OC)c1,"inconclusive: 10.3 µM [inhibitor, partial curve]"
12,C#CCOCCOCCOCCNc1nc(N2CCN(C(=O)[C@H](CCCCN)n3cc(C(N)COC(=O)C(F)(F)F)nn3)CC2)nc(N2CCN(C(=O)[C@H](CCCCN)n3cc(C(N)CC(C)C)nn3)CC2)n1 (some centres undefined),inactive
13,Cc1ccc(CNC(=O)NC2CCCCC2)cc1,"inconclusive: 18.4 µM [activator, partial curve]"
14,O=C(O)c1cccc(N2C(=O)c3cccc(Oc4ccc(Cl)cc4)c3C2=O)c1,"inconclusive: 29.1 µM [activator, single point]"
15,CCOC(=O)c1c(NC(=O)CSc2nc(C)cc(C)c2C#N)sc(C(C)=O)c1C,"inconclusive: 32.6 µM [activator, single point]"
16,CCCc1cc(-c2n[nH]c(C)c2-c2ccc(C(=O)OCC)o2)c(O)cc1O,"inconclusive: 25.1 µM [inhibitor, single point]"
17,COc1cc2c(cc1/C=C1/NC(=O)N(c3ccccc3)C1=O)OCO2,"inconclusive: 14.6 µM [activator, partial curve]"
18,CCOc1ccccc1Oc1coc2cc(O)ccc2c1=O,"inconclusive: 23.1 µM [activator, single point]"
19,S=C1NNC2(CC3CC2C2CCCC32)NN1 (centres undefined),inactive
20,O=C(O)CC(NC(=O)c1ccc2c(c1)OCO2)c1cccc([N+](=O)[O-])c1 (centres undefined),inactive
21,Cc1c(C#N)c(N=CN(C)C)c(C(=O)c2ccccc2)n1-c1ccccc1,inactive
22,CCC/C(=C1/c2ccccc2C(=O)N1c1ccccc1)c1cnc(OC)nc1,"inconclusive: 0.58 µM [inhibitor, full curve, poor fit]"
23,COc1cccc(OC)c1NC(=O)C1CCCN1C(=O)Nc1ccccc1Cl (centres undefined),inactive

row,Structure (SMILES),Potency
1,CC(=O)Nc1ccc(C2C(=O)c3ccccc3C2=O)cc1,"inconclusive: 23.1 µM [activator, partial curve]"
2,COC(=O)c1ccccc1NC(=O)c1ccco1,"inconclusive: 10 µM [activator, partial curve, poor fit]"
3,CCc1cccc(NC(=O)C2CCN(S(=O)(=O)c3cccs3)CC2)c1,"inconclusive: 20.6 µM [inhibitor, single point]"
4,COc1ccc(C(=O)Nc2cc(OC)c(NC(=O)c3ccco3)cc2OC)cc1,"inconclusive: 18.4 µM [inhibitor, single point]"
5,CCOC(=O)c1nn2c(C(F)(F)F)cc(-c3ccc(OC)cc3)nc2c1Br,inactive
6,COc1ccc(/C=N/NC(=O)c2ccn[nH]2)cc1COc1ccc(Cl)cc1Cl,"inconclusive: 29.1 µM [inhibitor, single point]"
7,O=S(=O)(NCCSc1nnnn1-c1ccccc1)c1cccs1,"inconclusive: 14.6 µM [activator, partial curve, poor fit]"
8,C1=Nc2ccccc2CN1c1ccccc1,"inconclusive: 14.6 µM [activator, partial curve]"
9,Cn1cccc1C(=O)OCC(=O)Nc1ccc2c(c1)OCO2,"inconclusive: 14.6 µM [activator, partial curve]"
10,O=C(/C=C/c1ccccc1)Nc1ccc(CN2CCOCC2)cc1,"inconclusive: 9.2 µM [activator, partial curve]"
11,Cc1cccnc1NC(N)=S,"inconclusive: 0.92 µM [inhibitor, single point]"
12,Cc1ccc(NC(=O)CCC(=O)c2ccc(Cl)s2)nc1,"inconclusive: 18.3 µM [activator, partial curve, poor fit]"
13,Cn1nc(C(C)(C)C)cc1C(=O)NCc1ccc(N2CCCC2=O)cc1,inactive
14,COc1ccccc1NC(=O)COC(=O)c1cc([N+](=O)[O-])ccc1N1CCCC1,"inconclusive: 11.2 µM [inhibitor, partial curve]"
15,CCOc1ccc(C(=O)Cn2cnc3ccccc3c2=O)cc1,"inconclusive: 18.3 µM [activator, partial curve]"
16,CC(=O)Nc1ccc(S(=O)(=O)Nc2nccs2)cc1,"inconclusive: 29.1 µM [inhibitor, single point]"
17,CC(C)c1ccc(S(=O)(=O)N2CCN(C(=O)CN3C(=O)NC(C)(c4ccccc4)C3=O)CC2)cc1 (centres undefined),"inconclusive: 0.0116 µM [activator, full curve, poor fit]"
18,COc1ccc(NC(=O)CCCn2c(=O)c3sccc3n(Cc3ccccc3)c2=O)cc1,"inconclusive: 18.4 µM [inhibitor, single point]"
19,COc1ccc(Br)cc1C(=O)Nc1cccc(NC(=O)c2ccco2)c1,active: 20.6 µM
20,O=C(O)c1sccc1Oc1ccc(NS(=O)(=O)c2ccc(Cl)cc2)cc1,inactive
21,CC1CCN(c2nc3nonc3nc2Nc2ccc(F)cc2)CC1,"inconclusive: 20.6 µM [inhibitor, single point]"
22,Cc1cccn2c(=O)c(/C=C(\C#N)C(=O)NCc3ccccc3)c(N3CCC(C(N)=O)CC3)nc12,"inconclusive: 6.51 µM [inhibitor, single point]"
23,Cc1noc(C)c1-c1nc(CS(=O)(=O)c2ccccc2)no1,inactive

# Random excerpt: 2 entries already listed.
row,Structure (SMILES),Potency
9,Cn1cccc1C(=O)OCC(=O)Nc1ccc2c(c1)OCO2,"inconclusive: 14.6 µM [activator, partial curve]"
12,Cc1ccc(NC(=O)CCC(=O)c2ccc(Cl)s2)nc1,"inconclusive: 18.3 µM [activator, partial curve, poor fit]"

# Two entries from above, with tabs.
row	Structure (SMILES)	Potency
5	CCOC(=O)c1nn2c(C(F)(F)F)cc(-c3ccc(OC)cc3)nc2c1Br	inactive
21	CC1CCN(c2nc3nonc3nc2Nc2ccc(F)cc2)CC1	inconclusive: 20.6 µM [inhibitor, single point]

# From PubChem BioAssay AID504467 (National Center for Advancing Translational Sciences (NCATS), 2011)
